Source: patent US9434704B2, “Compositions and methods for the treatment of neurological degenerative disorders” (CELLIX BIO PRIVATE LIMITED, priority 2012, dated 2016)

Experiment: Pharmacokinetics in plasma, brain and different segments of spinal cord in rat model
Conditions: single dose 8 mg/kg (riluzole equivalent)

For `Nc1nc2ccc(OC(F)(F)F)cc2s1` [Riluzole, riluzole], the “absorption after I.P. administration” value was “readily absorbed”.
